# Laboratory results as given in PubChem BioAssay AID504467 (National Center for Advancing Translational Sciences (NCATS), 2011).
# Hit rate of the full screen: of about 330,000 compounds, about 7,700 (2.3%) were called active. Inconclusive results, whose numbers are uncertain, are shown with a selection of clear calls. Calls come from the whole dose curve; as a rule, active = well fitted inhibition curve with a large enough effect; inconclusive = small, poorly fitted or top-dose-only effect, or effect the other way; inactive = flat fitted curve, though single readings scatter. Potencies of inconclusive entries are doubtful fits and often do not repeat.
# Test: qHTS screen for small molecules that inhibit ELG1-dependent DNA repair in human embryonic kidney (HEK293T) cells expressing luciferase-tagged ELG1; note: nearly all actives have a fitted effect of over 55% in size
# Conditions: HEK293T ELG1-luciferase reporter, luminescence, 16 h, DNA damage induced by 5-fluorouridine; series mostly up to 46.1 µM
# In short: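 Cells (2,000 per well) received 5-fluorouridine plus test compound or DMSO and were incubated 16 hr at 37 °C, 5% CO2. Luciferase activity was read by luminescence 30 min after ONE-Glo addition; signal suppression marked inhibition of damage-induced ELG1 function.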
# Potency is the fitted concentration of half-maximal effect.
row,SMILES,Potency
1,COc1ccc(NC(=O)Cc2ccccc2)cn1,inactive
2,O=C(CSc1nnc(CNc2cccc(C(F)(F)F)c2)n1Cc1ccco1)NCc1ccco1,"inconclusive: 10.3 µM [activator, partial curve]"
3,CCCn1nnc(NC(=O)c2sc3ccccc3c2Cl)n1,"inconclusive: 10.3 µM [activator, partial curve]"
4,CC(=O)COC(=O)C1=NN(c2ccccc2)C(=O)CC1,inactive
5,O=C(NCCCCNC(=O)C1CCCC1)C1CCCC1,inactive
6,C=CCSc1ncnc2c1oc1nc3c(cc12)COC(C)(C)C3,inactive
7,CCn1c(SCC(=O)Nc2cccc(F)c2)nc2c(c1=O)SC(C)C2 (stereo not drawn),"inconclusive: 29.1 µM [inhibitor, single point]"
8,O=C(Nc1ccccc1)c1ccc(F)c(S(=O)(=O)N2CCOCC2)c1,active: 14.6 µM
9,O=C1NC(=O)C(c2ccccc2[N+](=O)[O-])=C1Nc1ccc(O)c(Cl)c1,"inconclusive: 0.0073 µM [inhibitor, full curve, poor fit]"
10,CC(=O)c1ccc(N2CCN(C(=O)/C=C/c3ccc(S(=O)(=O)N4CCOCC4)cc3)CC2)cc1,"inconclusive: 20.6 µM [inhibitor, partial curve]"
11,O=C(/C=C/c1ccco1)Nc1scc(-c2ccccc2)c1C(=O)O,"inconclusive: 2.91 µM [activator, full curve]"
12,CCOC(=O)/C=c1\s/c(=C\c2ccc(C(F)(F)F)cc2)c(=O)n1CC(=O)NCc1ccco1,"inconclusive: 29.1 µM [activator, single point]"
13,COc1ccc(NC(=O)Nc2cccc3c2O[C@H](CN(C)S(=O)(=O)c2ccc(OC)cc2)[C@@H](C)CN([C@H](C)CO)C3=O)cc1,active: 20.6 µM
14,Cc1ccc(N(CC(=O)NCCc2ccc(F)cc2)S(=O)(=O)c2ccc(Cl)c([N+](=O)[O-])c2)c(C)c1,"inconclusive: 23.1 µM [inhibitor, single point]"
15,COc1cccc(NC(=O)CSc2nc(C3CC3)nc3ccccc23)c1,"inconclusive: 20.6 µM [inhibitor, partial curve, poor fit]"
16,O=C(Nc1ccc2c(c1)nc1n2CCOC1)c1ccccc1,"inconclusive: 14.6 µM [activator, partial curve]"
17,O=C1CC(N2CCN(S(=O)(=O)c3ccccc3)CC2)C(=O)N1c1ccccc1 (stereo not drawn),"inconclusive: 0.0116 µM [activator, full curve, poor fit]"
18,COc1ccc(CN2C(=O)c3cccnc3C2Nc2cc(Cl)ccc2OC)cc1 (stereo not drawn),"inconclusive: 18.4 µM [inhibitor, single point]"
19,CCC(C)(C)n1nnnc1C(c1cccnc1)N1CCN(c2cccc(C(F)(F)F)c2)CC1 (stereo not drawn),inactive
20,COc1ccc(-c2csc3ncn(-c4cccc(C)c4)c(=O)c23)cc1OC,inactive
21,O=C(Nc1ccc2c(c1)CCC2)Nc1ccccc1F,"inconclusive: 1.46 µM [activator, partial curve]"
22,CCCc1nn(C)c(C(=O)Nc2ccccc2)c1Cl,"inconclusive: 3.26 µM [activator, full curve]"

# Quoted at random: 2 entries already listed.
row,SMILES,Potency
19,CCC(C)(C)n1nnnc1C(c1cccnc1)N1CCN(c2cccc(C(F)(F)F)c2)CC1 (stereo not drawn),inactive
13,COc1ccc(NC(=O)Nc2cccc3c2O[C@H](CN(C)S(=O)(=O)c2ccc(OC)cc2)[C@@H](C)CN([C@H](C)CO)C3=O)cc1,active: 20.6 µM

# The results go on:

row,SMILES,Potency
1,O=C(NCCCCc1ccccc1)c1ccccc1Cl,"inconclusive: 6.51 µM [activator, single point]"
2,COc1ccc(NC(=O)c2nnn(CC(=O)Nc3ccccc3OC)c2N)c(OC)c1,"inconclusive: 14.6 µM [activator, single point]"
3,O=C(NC1CCCCC1)c1ccc2snnc2c1,"inconclusive: 23.1 µM [activator, partial curve, poor fit]"
4,COc1ccc(NC(=O)c2cc3c(CO)cnc(C)c3oc2=Nc2cc(OC)cc(OC)c2)cc1,"inconclusive: 0.82 µM [inhibitor, full curve]"
5,COCn1c(=O)c2c(nc(SC3=NCCS3)n2Cc2ccccc2C)n(COC)c1=O,active: 18.4 µM
6,CN(C)c1nc(F)c(F)c(S(=O)(=O)c2ccccc2)c1F,"inconclusive: 16.4 µM [activator, partial curve, poor fit]"
7,O=C(NCC1CCCO1)c1cccc(Oc2ccc([N+](=O)[O-])cc2Cl)c1 (stereo not drawn),"inconclusive: 23.1 µM [inhibitor, single point]"
8,O=C1CNC(=S)N1CCOc1ccccc1,inactive
9,O=C(CNC(=O)c1cccs1)c1ccc(Cl)cc1,"inconclusive: 10.3 µM [activator, partial curve]"
10,COc1cccc(-c2ncc3ccccc3c2COC(=O)c2cccs2)c1,"inconclusive: 16.4 µM [inhibitor, single point]"
11,Cn1c(=O)n(C)c2cc(NS(=O)(=O)c3ccc4c(c3)CCCC4)ccc21,inactive
12,CCOc1ccc(N(C(=O)c2ccccc2Cl)C2=NC(C)(C)CS2)cc1,"inconclusive: 29.1 µM [activator, single point]"
13,COc1ccccc1C(=O)NCc1ccccn1,"inconclusive: 25.9 µM [activator, partial curve, poor fit]"
14,COc1ccc(NC(=O)Nc2ccc3c(c2)C(=O)N([C@H](C)CO)C[C@H](C)[C@@H](CN(C)S(=O)(=O)c2ccc(F)cc2)O3)cc1,inactive
15,COc1cccc2oc3ccc(C#CC4(N)CCCCC4)cc3c(=O)c12,"inconclusive: 4.11 µM [activator, partial curve]"
16,O=C(CSc1ccc2nc(-c3ccccc3)cn2n1)NCC1CCCO1 (stereo not drawn),"inconclusive: 7.3 µM [activator, partial curve]"
17,O=C(c1cc(-c2ccncc2)nc2ccc(Br)cc12)N1CCN(Cc2ccc3c(c2)OCO3)CC1,"inconclusive: 5.8 µM [inhibitor, full curve]"
18,COc1ccc2cc(S(=O)(=O)N3CCCC3)ccc2c1,inactive
19,CCC1CCCCN1C(=O)Nc1ccc(F)cc1 (stereo not drawn),inactive
20,Cc1ccc2c(c1)-c1c(cnn1CC(=O)Nc1ccccc1N1CCN(C)CC1)CO2,"inconclusive: 32.6 µM [inhibitor, single point]"
21,Cn1ccnc1SCC(=O)c1ccc(C#N)cc1,"inconclusive: 18.3 µM [activator, partial curve, poor fit]"
